Laboratory results reported in the supplement of paper PMC10849652.
This is one part of the list.

Protein sequences, listed by entry. Tags and fused reporters are not part of them. Lines headed by an entry give the natural chain unless they say otherwise; changes in a name come on top.
UniProt P18031: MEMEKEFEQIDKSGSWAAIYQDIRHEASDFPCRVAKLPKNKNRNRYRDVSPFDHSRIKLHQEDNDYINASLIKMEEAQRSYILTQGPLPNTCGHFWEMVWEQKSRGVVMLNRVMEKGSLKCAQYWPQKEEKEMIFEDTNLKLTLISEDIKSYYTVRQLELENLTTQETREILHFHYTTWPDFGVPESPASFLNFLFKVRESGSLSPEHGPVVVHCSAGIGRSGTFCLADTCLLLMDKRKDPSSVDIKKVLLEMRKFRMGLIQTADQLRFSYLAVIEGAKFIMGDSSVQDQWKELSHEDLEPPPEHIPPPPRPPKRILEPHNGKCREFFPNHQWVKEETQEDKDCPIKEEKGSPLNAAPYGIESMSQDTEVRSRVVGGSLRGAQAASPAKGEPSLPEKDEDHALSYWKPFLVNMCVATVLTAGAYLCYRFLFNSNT
UniProt P25786: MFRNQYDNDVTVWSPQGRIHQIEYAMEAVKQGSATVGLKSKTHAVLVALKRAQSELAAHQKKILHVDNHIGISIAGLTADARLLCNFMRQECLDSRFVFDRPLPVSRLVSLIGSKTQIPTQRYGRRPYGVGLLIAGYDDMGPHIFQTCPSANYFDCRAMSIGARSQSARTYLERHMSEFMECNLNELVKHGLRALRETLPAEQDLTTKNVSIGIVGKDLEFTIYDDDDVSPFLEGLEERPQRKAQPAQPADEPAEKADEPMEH
UniProt P61289: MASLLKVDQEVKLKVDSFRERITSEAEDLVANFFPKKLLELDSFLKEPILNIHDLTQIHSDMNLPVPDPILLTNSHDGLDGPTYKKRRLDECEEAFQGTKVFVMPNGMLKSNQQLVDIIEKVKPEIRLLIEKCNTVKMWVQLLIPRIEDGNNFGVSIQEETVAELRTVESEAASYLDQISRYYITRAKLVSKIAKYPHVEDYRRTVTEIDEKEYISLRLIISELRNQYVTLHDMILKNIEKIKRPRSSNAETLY
UniProt Q53H96: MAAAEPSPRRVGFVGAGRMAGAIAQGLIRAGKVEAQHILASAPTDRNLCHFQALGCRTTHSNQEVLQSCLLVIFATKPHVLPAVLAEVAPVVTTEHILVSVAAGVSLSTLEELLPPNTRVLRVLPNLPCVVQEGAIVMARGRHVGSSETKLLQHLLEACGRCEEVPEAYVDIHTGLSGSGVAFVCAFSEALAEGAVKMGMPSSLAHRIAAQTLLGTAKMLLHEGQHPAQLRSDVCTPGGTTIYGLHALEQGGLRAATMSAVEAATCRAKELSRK
UniProt Q96PU8: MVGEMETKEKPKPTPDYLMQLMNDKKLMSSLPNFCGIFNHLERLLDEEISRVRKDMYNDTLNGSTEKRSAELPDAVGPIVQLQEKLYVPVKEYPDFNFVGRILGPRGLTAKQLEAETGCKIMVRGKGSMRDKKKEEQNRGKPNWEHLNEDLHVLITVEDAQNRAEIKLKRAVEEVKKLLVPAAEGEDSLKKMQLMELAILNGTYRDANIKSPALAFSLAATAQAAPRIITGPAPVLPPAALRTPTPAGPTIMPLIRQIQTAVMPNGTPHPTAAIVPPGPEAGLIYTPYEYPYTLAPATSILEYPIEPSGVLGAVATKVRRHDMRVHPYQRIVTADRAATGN
UniProt Q9Y617: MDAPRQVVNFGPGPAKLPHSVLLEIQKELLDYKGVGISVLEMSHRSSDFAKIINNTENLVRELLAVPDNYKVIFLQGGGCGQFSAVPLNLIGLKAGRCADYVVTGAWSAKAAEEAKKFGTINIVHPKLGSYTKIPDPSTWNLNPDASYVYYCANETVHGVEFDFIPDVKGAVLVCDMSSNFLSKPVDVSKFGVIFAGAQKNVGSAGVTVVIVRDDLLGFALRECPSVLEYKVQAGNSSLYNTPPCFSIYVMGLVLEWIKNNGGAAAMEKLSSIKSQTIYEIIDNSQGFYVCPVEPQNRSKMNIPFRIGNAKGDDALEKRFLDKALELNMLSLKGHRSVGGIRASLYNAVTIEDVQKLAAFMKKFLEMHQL
UniProt Q7Z7A4: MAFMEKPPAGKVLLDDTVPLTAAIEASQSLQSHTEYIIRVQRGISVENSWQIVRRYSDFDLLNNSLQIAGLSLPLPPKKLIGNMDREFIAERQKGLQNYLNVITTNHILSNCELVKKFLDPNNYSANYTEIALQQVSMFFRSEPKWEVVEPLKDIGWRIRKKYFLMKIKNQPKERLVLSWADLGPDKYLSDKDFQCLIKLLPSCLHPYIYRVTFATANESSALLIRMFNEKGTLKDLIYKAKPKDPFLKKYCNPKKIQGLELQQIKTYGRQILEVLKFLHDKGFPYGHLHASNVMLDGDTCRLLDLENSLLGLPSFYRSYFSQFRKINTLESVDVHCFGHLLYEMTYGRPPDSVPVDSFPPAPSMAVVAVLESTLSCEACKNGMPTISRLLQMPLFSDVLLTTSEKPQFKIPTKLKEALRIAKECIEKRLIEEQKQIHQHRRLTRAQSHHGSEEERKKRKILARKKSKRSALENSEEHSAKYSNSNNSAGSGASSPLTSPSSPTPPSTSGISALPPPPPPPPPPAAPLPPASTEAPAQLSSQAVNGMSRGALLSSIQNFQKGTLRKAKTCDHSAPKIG
UniProt Q2TAL8: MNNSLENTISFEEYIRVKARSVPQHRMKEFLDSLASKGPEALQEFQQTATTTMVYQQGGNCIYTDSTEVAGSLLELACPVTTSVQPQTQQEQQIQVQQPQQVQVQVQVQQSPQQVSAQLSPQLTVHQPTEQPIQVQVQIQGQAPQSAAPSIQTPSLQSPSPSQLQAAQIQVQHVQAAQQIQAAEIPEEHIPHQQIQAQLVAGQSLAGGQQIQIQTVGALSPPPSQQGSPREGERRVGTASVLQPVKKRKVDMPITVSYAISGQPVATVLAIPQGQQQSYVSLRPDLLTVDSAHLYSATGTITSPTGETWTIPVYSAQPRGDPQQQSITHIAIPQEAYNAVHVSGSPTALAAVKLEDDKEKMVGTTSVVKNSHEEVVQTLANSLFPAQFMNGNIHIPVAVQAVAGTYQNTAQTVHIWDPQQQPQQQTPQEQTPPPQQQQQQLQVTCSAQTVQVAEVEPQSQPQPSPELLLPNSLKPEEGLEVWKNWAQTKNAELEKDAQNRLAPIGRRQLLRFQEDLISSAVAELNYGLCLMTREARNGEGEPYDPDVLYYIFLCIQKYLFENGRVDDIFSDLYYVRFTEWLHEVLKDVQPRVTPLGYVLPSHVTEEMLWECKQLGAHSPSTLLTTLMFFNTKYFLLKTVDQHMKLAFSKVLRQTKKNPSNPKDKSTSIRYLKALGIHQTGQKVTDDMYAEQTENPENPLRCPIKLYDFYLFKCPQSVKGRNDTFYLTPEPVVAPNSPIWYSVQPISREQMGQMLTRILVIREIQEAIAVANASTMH
UniProt Q8TAA3: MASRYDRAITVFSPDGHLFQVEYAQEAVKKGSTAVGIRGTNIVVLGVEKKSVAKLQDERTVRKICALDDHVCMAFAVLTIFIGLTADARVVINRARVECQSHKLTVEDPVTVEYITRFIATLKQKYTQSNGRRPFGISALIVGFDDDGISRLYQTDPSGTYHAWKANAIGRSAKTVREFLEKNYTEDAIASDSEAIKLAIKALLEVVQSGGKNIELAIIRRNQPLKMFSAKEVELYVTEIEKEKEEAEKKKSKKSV
UniProt O00233: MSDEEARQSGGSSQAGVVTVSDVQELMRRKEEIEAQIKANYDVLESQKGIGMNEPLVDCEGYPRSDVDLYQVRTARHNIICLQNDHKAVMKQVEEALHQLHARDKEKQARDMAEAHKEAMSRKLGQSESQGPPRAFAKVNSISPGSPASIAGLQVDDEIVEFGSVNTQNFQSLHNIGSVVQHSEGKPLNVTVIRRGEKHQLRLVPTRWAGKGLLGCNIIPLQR
UniProt P08575: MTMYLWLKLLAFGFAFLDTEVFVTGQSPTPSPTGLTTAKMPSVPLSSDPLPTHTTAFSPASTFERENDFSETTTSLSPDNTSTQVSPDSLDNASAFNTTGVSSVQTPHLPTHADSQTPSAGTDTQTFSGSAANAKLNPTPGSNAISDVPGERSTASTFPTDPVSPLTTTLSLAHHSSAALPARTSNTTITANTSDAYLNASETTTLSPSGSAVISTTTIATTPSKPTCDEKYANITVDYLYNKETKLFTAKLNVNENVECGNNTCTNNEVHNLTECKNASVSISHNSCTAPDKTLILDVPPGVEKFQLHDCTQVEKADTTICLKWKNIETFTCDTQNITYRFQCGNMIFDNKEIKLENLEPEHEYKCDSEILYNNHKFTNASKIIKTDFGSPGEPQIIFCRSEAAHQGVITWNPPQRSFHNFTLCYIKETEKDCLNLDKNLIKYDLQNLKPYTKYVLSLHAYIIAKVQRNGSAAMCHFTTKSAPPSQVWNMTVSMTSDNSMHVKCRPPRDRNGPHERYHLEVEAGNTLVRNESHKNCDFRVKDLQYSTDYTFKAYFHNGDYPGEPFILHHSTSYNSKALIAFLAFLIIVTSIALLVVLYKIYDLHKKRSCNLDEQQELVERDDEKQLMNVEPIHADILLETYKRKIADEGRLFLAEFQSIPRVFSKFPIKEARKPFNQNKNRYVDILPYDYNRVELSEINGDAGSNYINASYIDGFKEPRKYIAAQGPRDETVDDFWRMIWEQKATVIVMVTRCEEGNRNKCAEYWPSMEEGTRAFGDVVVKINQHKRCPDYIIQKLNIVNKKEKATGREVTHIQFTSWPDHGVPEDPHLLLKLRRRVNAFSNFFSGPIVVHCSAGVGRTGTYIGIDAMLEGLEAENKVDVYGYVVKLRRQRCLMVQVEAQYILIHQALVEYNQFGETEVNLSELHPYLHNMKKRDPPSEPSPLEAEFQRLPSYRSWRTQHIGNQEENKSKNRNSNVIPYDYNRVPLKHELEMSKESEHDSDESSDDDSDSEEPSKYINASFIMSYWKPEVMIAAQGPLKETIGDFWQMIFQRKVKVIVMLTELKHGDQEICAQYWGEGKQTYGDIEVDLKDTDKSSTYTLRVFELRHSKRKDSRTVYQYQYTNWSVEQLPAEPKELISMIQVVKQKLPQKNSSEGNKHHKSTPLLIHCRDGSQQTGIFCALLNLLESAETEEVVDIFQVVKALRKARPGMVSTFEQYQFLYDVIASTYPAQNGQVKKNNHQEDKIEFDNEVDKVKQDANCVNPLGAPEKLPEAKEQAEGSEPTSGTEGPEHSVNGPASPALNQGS
UniProt P17980, whole entry, looked up: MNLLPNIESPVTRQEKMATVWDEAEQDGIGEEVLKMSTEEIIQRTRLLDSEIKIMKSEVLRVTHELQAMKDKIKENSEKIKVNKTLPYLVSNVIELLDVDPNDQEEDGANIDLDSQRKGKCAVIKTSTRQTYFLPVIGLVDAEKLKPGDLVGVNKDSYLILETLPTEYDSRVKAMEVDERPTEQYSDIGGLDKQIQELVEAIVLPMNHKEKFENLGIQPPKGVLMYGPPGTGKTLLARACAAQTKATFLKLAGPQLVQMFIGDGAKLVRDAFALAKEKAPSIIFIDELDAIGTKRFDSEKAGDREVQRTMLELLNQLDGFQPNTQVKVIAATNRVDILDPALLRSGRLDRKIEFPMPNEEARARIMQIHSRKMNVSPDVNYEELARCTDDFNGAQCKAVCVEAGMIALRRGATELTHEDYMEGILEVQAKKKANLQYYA
UniProt O14818: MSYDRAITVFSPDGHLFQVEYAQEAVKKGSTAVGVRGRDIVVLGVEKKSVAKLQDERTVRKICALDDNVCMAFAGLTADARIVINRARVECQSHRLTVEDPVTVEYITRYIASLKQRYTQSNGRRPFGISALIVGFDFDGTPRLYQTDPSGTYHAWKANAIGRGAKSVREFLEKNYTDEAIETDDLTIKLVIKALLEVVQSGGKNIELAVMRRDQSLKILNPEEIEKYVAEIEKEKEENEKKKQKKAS
UniProt O95456: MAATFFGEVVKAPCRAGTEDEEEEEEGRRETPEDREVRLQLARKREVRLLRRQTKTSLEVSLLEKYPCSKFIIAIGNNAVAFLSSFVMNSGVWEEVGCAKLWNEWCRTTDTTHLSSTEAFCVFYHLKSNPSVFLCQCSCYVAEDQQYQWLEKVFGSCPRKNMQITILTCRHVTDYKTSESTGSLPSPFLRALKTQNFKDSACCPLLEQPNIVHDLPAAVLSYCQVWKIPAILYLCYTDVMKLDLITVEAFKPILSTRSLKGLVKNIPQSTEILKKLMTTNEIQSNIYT
UniProt Q86TP1: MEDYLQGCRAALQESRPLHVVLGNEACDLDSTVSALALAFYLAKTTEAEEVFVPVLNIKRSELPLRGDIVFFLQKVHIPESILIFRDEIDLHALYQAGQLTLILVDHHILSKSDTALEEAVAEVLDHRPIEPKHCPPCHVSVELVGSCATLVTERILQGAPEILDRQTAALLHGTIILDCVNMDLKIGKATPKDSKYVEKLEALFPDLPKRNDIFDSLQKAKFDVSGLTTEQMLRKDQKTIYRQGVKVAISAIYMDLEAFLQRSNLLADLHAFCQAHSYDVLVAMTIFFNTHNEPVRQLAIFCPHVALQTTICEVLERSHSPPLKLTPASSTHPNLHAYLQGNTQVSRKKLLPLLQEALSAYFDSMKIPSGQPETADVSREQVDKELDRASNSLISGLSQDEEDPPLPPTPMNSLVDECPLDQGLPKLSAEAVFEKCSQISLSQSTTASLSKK

Tests used:
Assay in all cases: log2 fold change, soluble protein after heating vs DMSO (PISA); higher = thermal stabilisation; K562 cells, 10 uM, 30 min; active = over 0.2 and 3.5 SD of the protein, either way, in both replicates (recomputed)
[1] = compound: C1=CC=C(C=C1)[C@H](COC2=CC3=C(C=C2)NC(=O)N3)NC(=O)C4=CC=CN(C4=O)CC5=CC(=C(C=C5)F)F
Outline: (§1)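 Aliquots of K562 cells (2×10^6 cells/mL) treated with 10 μM compound for 30 min were heated for 3 min over 48°C-58°C. After pooling and extraction in PBS with 0.5% NP-40 at 4°C, soluble protein from a 21,000xg, 90 min spin was quantified by TMTpro 16plex LC-MS/MS with channel sums equalised. Thermal stability is expressed against control samples, from duplicates, as a log2 fold change.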

[2] = compound: CC1=C(SC2=C1C(=N[C@H](C3=NN=C(N32)C)CC(=O)N)C4=CC=C(C=C4)Cl)C
Outline: as §1

[3] = compound: CC1=C2C(=CC=C1)N=C(N(C2=O)C3=CC=CC=C3C)CN4C=NC5=C(N=CN=C54)N
Outline: as §1

[4] = compound: Cc1sc2c(c1C)C(c1ccc(Cl)cc1)=N[C@@H](CC(=O)OC(C)(C)C)c1nnc(C)n1-2
Outline: as §1

[5] = compound: c1ccc([C@@H]2C[C@H]2NC2CCNCC2)cc1
Outline: as §1

Measured: log2 fold change

PXN (UniProt P49023)
inactive: [1] 0.044 | [2] -0.011 | [3] -0.035 | [4] -0.004 | [5] 0.048

PUS3 (UniProt Q9BZE2)
inactive: [1] -0.072 | [2] 0.107 | [3] 0.088 | [4] -0.005 | [5] -0.056

PTAR1 (UniProt Q7Z6K3)
inactive: [1] 0.035 | [2] 0.034 | [3] 0.015 | [4] 0.005 | [5] -0.014

PTPN1 (UniProt P18031)
inactive: [1] -0.057 | [2] -0.036 | [3] 0.038 | [4] -0.004 | [5] -0.025

PTPA (UniProt Q15257)
inactive: [1] -0.013 | [2] 0.021 | [3] 0.005 | [4] -0.041 | [5] -0.003

PTGS1 isoform 6 (UniProt P23219)
inactive: [1] -0.022 | [2] 0.021 | [3] 0.065 | [4] -0.022 | [5] 0.026

PSMA1 isoform 2 (UniProt P25786)
inactive: [1] 0.023 | [2] -0.066 | [3] -0.059 | [4] -0.006 | [5] 0.052

PSMD8 (UniProt P48556)
inactive: [1] 0.014 | [2] -0.07 | [3] -0.01 | [4] -0.001 | [5] 0.071

PSME3 isoform 2 (UniProt P61289)
inactive: [1] 0.019 | [2] 0 | [3] -0.04 | [4] 0.017 | [5] 0.045

PYCR3 (UniProt Q53H96)
inactive: [1] -0.035 | [2] 0.053 | [3] -0.021 | [4] 0.002 | [5] -0.009

PYROXD1 (UniProt Q8WU10)
inactive: [1] 0.104 | [2] 0.098 | [3] 0.042 | [4] 0.016 | [5] -0.248

QKI (UniProt Q96PU8)
inactive: [1] -0.016 | [2] 0.039 | [3] 0.105 | [4] -0.082 | [5] 0.01

PSEN1 (UniProt P49768)
inactive: [1] -0.101 | [2] 0.122 | [3] 0.081 | [4] -0.078 | [5] -0.055

PWP1 (UniProt Q13610)
inactive: [1] 0.118 | [2] -0.348 | [3] -0.269 | [4] 0.23 | [5] 0.009

QTRT1 (UniProt Q9BXR0)
inactive: [1] 0.032 | [2] -0.005 | [3] 0.055 | [4] -0.023 | [5] -0.014

PTTG1 (UniProt O95997)
inactive: [1] -0.005 | [2] 0.003 | [3] 0.014 | [4] 0.004 | [5] 0.011

PTBP3 isoform 4 (UniProt O95758)
inactive: [1] -0.011 | [2] 0.007 | [3] 0.031 | [4] 0.017 | [5] 0.032

PTPN23 (UniProt Q9H3S7)
inactive: [1] -0.038 | [2] 0.048 | [3] 0.054 | [4] 0 | [5] 0.038

PSAT1 (UniProt Q9Y617)
inactive: [1] 0.008 | [2] 0.016 | [3] -0.018 | [4] -0.005 | [5] 0.037

PSMC5 (UniProt P62195)
inactive: [1] 0.017 | [2] -0.087 | [3] -0.045 | [4] 0.006 | [5] 0.01

PXK (UniProt Q7Z7A4)
inactive: [1] -0.015 | [2] 0.04 | [3] 0.098 | [4] 0.011 | [5] -0.045

PSTPIP2 (UniProt Q9H939)
inactive: [1] -0.059 | [2] -0.008 | [3] 0.07 | [4] 0.002 | [5] 0.025

PTMS (UniProt P20962)
inactive: [1] -0.011 | [2] 0.024 | [3] -0.027 | [4] -0.023 | [5] 0.035

Two records drawn at random from those above:
PTTG1 (UniProt O95997)
inactive: [1] -0.005 | [2] 0.003 | [3] 0.014 | [4] 0.004 | [5] 0.011

PSTPIP2 (UniProt Q9H939)
inactive: [1] -0.059 | [2] -0.008 | [3] 0.07 | [4] 0.002 | [5] 0.025

More results.

PTPRA (UniProt P18433)
inactive: [1] -0.088 | [2] 0.022 | [3] 0.079 | [4] 0.002 | [5] 0.021

QRICH1 (UniProt Q2TAL8)
inactive: [1] -0.029 | [2] -0.148 | [3] 0 | [4] -0.02 | [5] -0.016

PSMA8 (UniProt Q8TAA3)
inactive: [1] 0.089 | [2] 0.014 | [3] 0.004 | [4] 0.025 | [5] -0.023

QRSL1 (UniProt Q9H0R6)
inactive: [1] -0.01 | [2] 0.142 | [3] 0.147 | [4] 0.05 | [5] 0.041

PSMD9 (UniProt O00233)
inactive: [1] 0.014 | [2] 0.017 | [3] -0.004 | [4] 0.007 | [5] 0.016

PTS (UniProt Q03393)
inactive: [1] 0.025 | [2] 0.052 | [3] 0.103 | [4] 0.098 | [5] -0.03

PSIP1 (UniProt O75475)
inactive: [1] 0.058 | [2] -0.082 | [3] -0.087 | [4] 0.1 | [5] 0.016

PTPRC (UniProt P08575)
inactive: [1] -0.013 | [2] 0.046 | [3] 0.027 | [4] 0.028 | [5] 0.033

PSME2 (UniProt Q9UL46)
inactive: [1] -0.016 | [2] -0.015 | [3] -0.049 | [4] 0.009 | [5] 0.016

PRSS21 (UniProt Q9Y6M0)
inactive: [1] 0.143 | [2] 0.043 | [3] 0.002 | [4] -0.006 | [5] -0.091

PSMC3 (UniProt P17980)
inactive: [1] 0.014 | [2] -0.083 | [3] -0.058 | [4] 0 | [5] 0

PTMA (UniProt P06454)
inactive: [1] 0.029 | [2] 0.017 | [3] -0.105 | [4] -0.166 | [5] -0.009

PSMA7 (UniProt O14818)
inactive: [1] 0.04 | [2] -0.032 | [3] -0.062 | [4] 0.006 | [5] -0.028

QSOX2 (UniProt Q6ZRP7)
inactive: [1] 0.026 | [2] 0.04 | [3] 0.054 | [4] -0.007 | [5] -0.016

PTK2B (UniProt Q14289)
inactive: [1] -0.105 | [2] -0.098 | [3] 0.194 | [4] 0 | [5] -0.013

PSMG1 (UniProt O95456)
inactive: [1] 0.005 | [2] 0 | [3] -0.029 | [4] 0.013 | [5] 0.038

PURA (UniProt Q00577)
inactive: [1] 0.116 | [2] -0.403 | [3] -0.092 | [4] 0.298 | [5] 0.043

PSMB2 (UniProt P49721)
inactive: [1] 0.029 | [2] 0.006 | [3] 0.016 | [4] -0.068 | [5] 0.015

PRUNE1 (UniProt Q86TP1)
inactive: [1] -0.025 | [2] -0.002 | [3] 0.023 | [4] 0 | [5] -0.007

PSMB5 (UniProt P28074)
inactive: [1] 0.065 | [2] -0.016 | [3] -0.104 | [4] 0.005 | [5] 0.05
